Laboratory results taken from PubChem BioAssay AID485298 (National Center for Advancing Translational Sciences (NCATS), 2010).
Among all 320,000 compounds or so, about 740 (0.23%) were called active. Only results without a clear call are listed here; the source files them as inconclusive. Calls come from the whole dose curve; as a rule, active = well fitted activation curve with a large enough effect; inconclusive = small, poorly fitted or top-dose-only effect; inactive = no such curve, though single readings can be large or run the other way.
Potency is the fitted concentration of half-maximal effect.

Assay: qHTS Assay for Small Molecule Inhibitors of Mitochondrial Division or Activators of Mitochondrial Fusion; note: nearly all actives have a fitted effect of over 45% in size
Details: S. cerevisiae fusion-defective mutant growth rescue, CellTiterGlo 48 h
Excerpt: NIH Chemical Genomics Center [NCGC] NIH Molecular Libraries Probe Production centers Network [MLPCN] MLPCN Grant: MH081279-01 Assay Submitter (PI): Jodi M. Nunnari NCGC Assay Overview: The budding yeast S. cerevisiae is a powerful system to study mitochondrial fusion. Unlike other organisms, yeast cells without functional mitochondrial DNA (mtDNA) can be propagated and studied as long as they maintain a mitochondrial compartment and are provided with a fermentable carbon source. When mitochondrial fusion is blocked in yeast, mitochondrial tubules rapidly fragment and division continues unopposed. Under conditions where fusion is compromised in mammalian cells, nearly identical changes in mitochondrial structure have been observed. Thus, these findings indicate that steady state mitochondrial structure in cells is a characteristic and specific indicator of fusion activity. […] We have developed and optimized a luminescence cell viability assay in 1536 well format for the identification of inhibitors in the yeast mitochondrial fusion-defective assay.
The yeast glycerol stocks where kindly supplied by the laboratory of Dr. Jodi Nunnari, University of California, Davis. […] The CellTiterGlo luminescence reagent, containing luciferase and luciferin, were purchased from Promega, and the reagents were stored according to manufacturer's instructions. […] 7.#Read using bio-luminescence protocol on Viewlux.
In the case of `CCCOc1ccc(C(=O)NCC2(N(C)C)CCCCC2)cc1`, the Potency is reported as inconclusive: 15.8 µM.
